Measured values as given in PubChem BioAssay AID504648 (National Center for Advancing Translational Sciences (NCATS), 2011).
Screen size: about 390,000 compounds; about 610 (0.16%) were called active. The shares of active, inactive and inconclusive entries below differ from those in the screen. Calls come from the whole dose curve; as a rule, active = well fitted inhibition curve with a large enough effect; inconclusive = small, poorly fitted or top-dose-only effect, or effect the other way, or another doubt; inactive = no such curve, though single readings can be large or run the other way. Where the call is inconclusive, the potency comes from a doubtful curve fit.

test: Nrf2 qHTS screen for inhibitors: counterscreen for cytotoxicity; details: A549 ARE-Fluc cells, CellTiter-Fluor viability, 18-24 h; activity change, negative = cytotoxicity: at 46 µM (top of the series)
In short: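 A549 ARE-Fluc cells in 5% FBS OPTI-MEM, 5000 cells/well, rested 2 h then exposed to compounds in concentration-response for 18-24 h at 37 °C. Viability by CellTiter-Fluor fluorescence (Ex 405/Em 525) after 30 min; luciferase luminescence (BugLite, 15 min, RT) read afterwards.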
% is set by controls: 0 for no effect and ±100 for the full control effect; potency is the fitted concentration of half-maximal effect.

SMILES	activity change, negative = cytotoxicity	Potency
O=C(CCNS(=O)(=O)c1cccs1)NCc1ccccc1	inactive: -2.13%	–
CC(C)CNS(=O)(=O)c1ccc(S(=O)(=O)N2CCC3(CC2)OCCO3)cc1	–	inconclusive: 8.2 µM [activator, partial curve, poor fit]
O=C(COC(=O)c1cc([N+](=O)[O-])ccc1NCCO)Nc1cccnc1Cl	–	inconclusive: 18.4 µM [falling, single point]
O=S1(=O)C=C(Sc2nc3cc(Cl)ccc3o2)c2ccccc21	–	inconclusive: 20.6 µM [falling, single point]
O=C(Nc1ccc(Oc2ccccc2)nc1)C1CCN(Cc2cccc(F)c2)CC1	–	inconclusive: 16.4 µM [falling, single point]
CCOc1ccc(CSC(=N)N)cc1[N+](=O)[O-]	–	inconclusive: 20.6 µM [falling, partial curve]
CCc1cccc2c(C(=O)CN3C(=O)N(C)C4(CCCCC4)C3=O)c[nH]c12	–	inconclusive: 25.9 µM [falling, partial curve, poor fit]
C=CC[C@@H](CC(=O)N[C@H](CO)Cc1ccccc1)C(=O)N[C@H](COC(=O)[C@@H](CC=C)Cc1ccc(F)cc1)C(C)(C)C	–	inconclusive: 20.6 µM [falling, single point]
COc1cccc(C2C(C(=O)OC(C)C)=C(C)N=c3s/c(=C\c4ccc(C(=O)O)cc4)c(=O)n32)c1 (stereo unspecified)	–	inconclusive: 23.1 µM [falling, single point]
COc1ccc(-n2nc3c(N4CCCC(C(=O)NCc5ccccc5C)C4)nnc(C)c3c2C)cc1 (stereo unspecified)	–	active: 18.4 µM
Cc1cc(C)nc(NC(=NCCc2c[nH]c3ccccc23)NC(=O)C(C)(C)C)n1	–	inconclusive: 25.9 µM [falling, partial curve, poor fit]
COCCNc1oc(-c2ccco2)nc1S(=O)(=O)c1ccccc1	–	inconclusive: 29.1 µM [activator, single point]
COc1ccc(Cl)cc1NC(=O)CN1C(=O)NC(Cc2c[nH]c3ccccc23)C1=O (stereo unspecified)	–	inconclusive: 23.1 µM [falling, partial curve, poor fit]
O=C(N=Nc1c(O)[nH]c2ccccc12)c1cc(-c2cccs2)[nH]n1	inactive: -4.92%	–
O=[N+]([O-])c1ccc(NN=Cc2ccccc2O)nc1	–	inconclusive: 32.6 µM [falling, single point]
CCOC(=O)c1c(NC(=O)c2cc(=O)c3c(C)cc(C)cc3o2)sc(C)c1C	inactive: 1.6%	–
O=C(c1ccco1)N1CCN(C(=O)C2CCCc3c2[nH]c2ccc(Cl)cc32)CC1 (stereo unspecified)	inactive: -6.19%	–
COc1ccc(-c2noc(CN3CCCCC3)n2)cc1OC	–	inconclusive: 20.6 µM [activator, partial curve, poor fit]
Brc1cnc2nc(SCc3nc4ccccc4[nH]3)[nH]c2c1	inactive: -5.29%	–
CN1C(=O)c2ccccc2Sc2ccc(NC(=O)NCc3ccccc3Br)cc21	inactive: -11.2%	–
Cc1ccc(CN(Cc2cccn2-c2nnc(N3CCCC3=O)s2)C(=O)Nc2cc(C)cc(C)c2)cc1	–	inconclusive: 32.6 µM [activator, partial curve, poor fit]
CCCn1c(CCC(=O)O)ccc1-c1ccc(OC)cc1	inactive: 8.83%	–

SMILES	activity change, negative = cytotoxicity	Potency
CCN1CCN(C(=S)NC(C)c2ccccc2)CC1 (stereo unspecified)	–	inconclusive: 23.1 µM [activator, partial curve, poor fit]
COc1ccc2ccccc2c1CN1CCN(Cc2ccccc2)CC1	–	inconclusive: 23.1 µM [falling, single point]
N=c1nc2n(cc1F)C1OC(CO)C(O)C1O2 (stereo unspecified)	–	inconclusive: 14.6 µM [falling, partial curve, poor fit]
CC(C)n1cnc2c(NCc3ccccc3)cc(N[C@H](C)CO)cc21	–	active: 23.1 µM
O=C(NCCc1ccc(Cl)cc1)c1cc(-c2ccccn2)nc2ccccc12	–	inconclusive: 18.4 µM [falling, single point]
COc1ccc(/C=N/NC(=O)c2ccoc2C)cc1COc1c(C)cccc1C	–	inconclusive: 25.9 µM [falling, single point]
CC(C)(C)c1ccc(C(=O)Nc2ccc3nc(SCC(=O)N4CCCC4)sc3c2)cc1	–	inconclusive: 25.9 µM [falling, partial curve, poor fit]
COc1ccc2c3n([n+]([O-])c2c1)CCN=C3c1cc(Cl)c(N)c(Cl)c1	–	inconclusive: 29.1 µM [falling, partial curve, poor fit]
Cc1nc(Nc2ccc3c(c2)OCCO3)c2nnn(Cc3ccccc3Cl)c2n1	–	inconclusive: 20.6 µM [falling, partial curve, poor fit]
CCc1sc(C(=O)Nc2ccc3nc(C)sc3c2)cc1C	inactive: 3.19%	–
COc1ccc(C(=O)c2cn(Cc3ccc(F)cc3)c3c(F)cc(F)cc3c2=O)cc1	–	inconclusive: 20.6 µM [falling, single point]
CCOC(=O)c1ccc(N2C(=O)c3n[nH]c(-c4ccco4)c3C2c2cccc(F)c2)cc1 (stereo unspecified)	–	inconclusive: 29.1 µM [falling, single point]
Cc1ccc(NC(=O)C2CCN(S(=O)(=O)c3c(C)noc3/C=C/c3ccco3)CC2)nc1	inactive: -1.43%	–
CC(C)NS(=O)(=O)c1ccc(OCC(=O)N2CCN(c3cccc(Cl)c3)CC2)cc1	–	inconclusive: 23.1 µM [falling, single point]
Cc1ccsc1/C=C/c1ccc2ccccc2n1	–	inconclusive: 20.6 µM [activator, single point]
CCN(CC)c1ccc2c(c1)OC(N)=C(C#N)C2c1cccnc1 (stereo unspecified)	–	inconclusive: 7.31 µM [falling, partial curve]
N#Cc1ccc(C(=O)Nc2nc(-c3cccs3)c(C(=O)C(F)(F)F)s2)cc1	–	inconclusive: 18.4 µM [falling, partial curve]
NC(=O)c1ccccc1OCc1nnc(-c2ccccc2Br)o1	inactive: 5.9%	–
COc1cc(Cl)c(C)cc1NC(=O)CSCc1nc(-c2ccc(OC)c(OC)c2)no1	inactive: -1.16%	–
Cc1ccccc1NS(=O)(=O)c1cc(C(=O)Nc2cccc([N+](=O)[O-])c2)ccc1C	–	inconclusive: 18.4 µM [falling, single point]
CSC1=C(C#N)C(c2ccccc2Cl)C2=C(N1)c1ccccc1C2=O (stereo unspecified)	inactive: 0.34%	–
O=C(Nc1ccc(Cn2cccn2)cc1)c1ccc(COc2cccc(Br)c2)cc1	–	inconclusive: 25.9 µM [falling, partial curve, poor fit]

SMILES	activity change, negative = cytotoxicity	Potency
Cc1[nH]n(-c2ccccc2)c(=O)c1C(c1cccc([N+](=O)[O-])c1)c1c(C)[nH]n(-c2ccccc2)c1=O	–	inconclusive: 20.6 µM [falling, partial curve, poor fit]
CCc1c(C)nc2cc(-c3cc(OC)cc(OC)c3)nn2c1N1CCN(CCN2CCOCC2)CC1	inactive: -0.541%	–
CC(C)CC(=O)Nc1nc2ccc(S(=O)(=O)N3CCOCC3)cc2s1	–	inconclusive: 16.4 µM [falling, partial curve, poor fit]
Cc1c(NCc2ccncc2)cccc1C(=O)O	inactive: 2.6%	–
O=C(NNC1=Nc2ccccc2SC1)c1ccc(Cl)cc1	–	inconclusive: 16.4 µM [falling, partial curve, poor fit]
CC1(C)Oc2ccc3ccc(=O)oc3c2/C(=C/Nc2ccc(O)cc2)C1=O	–	inconclusive: 8.2 µM [falling, partial curve, poor fit]
Cc1nc2c(-c3ccc(F)cc3)c(C)[nH]n2c(=O)c1Cl	inactive: 4.61%	–
O=C1c2ccccc2C(=O)c2c(NCCCN(CCO)CCO)cccc21	–	inconclusive: 20.6 µM [falling, single point]
CCN1C(C(=O)c2ccccc2)=C(OC(=O)c2ccc(Cl)cc2)c2ccccc2S1(=O)=O	–	inconclusive: 18.4 µM [falling, single point]
O=C(NC(c1ccccc1)c1ccccc1)c1ccc(Br)o1	–	inconclusive: 32.6 µM [activator, partial curve, poor fit]
Cc1cc(Nc2cccc(F)c2)nc(NCc2ccccc2)n1	–	inconclusive: 29.1 µM [falling, single point]
COc1ccc(CC2(CO)CCN(CC3=CC[C@H]4C[C@@H]3C4(C)C)CC2)cc1	–	inconclusive: 25.9 µM [activator, partial curve, poor fit]
COC(=O)c1ccc(NC(=O)c2cccc(N3C(=O)C4C5C=CC(C6CC56)C4C3=O)c2)cc1 (stereo unspecified)	–	inconclusive: 32.6 µM [falling, partial curve, poor fit]
Cc1csc(NC(=O)/C=C/c2ccco2)n1	inactive: -4.11%	–
Cc1c(C(C)C)c(=O)n(-c2ccc(S(=O)(=O)NC3CC3)cc2)n1C	inactive: 1.71%	–
CC1CN(c2ccc([N+](=O)[O-])cc2C#N)CC(C)O1 (stereo unspecified)	–	inconclusive: 18.4 µM [falling, partial curve, poor fit]
Cc1cc(C)cc(OCCOCCn2c(-c3ccc(Cl)cc3)nc3ccccc3c2=O)c1	inconclusive: -47.1% [activator]	–
C(=NN=C(NN=Cc1cccs1)NN=Cc1cccs1)c1cccs1	–	inconclusive: 18.4 µM [falling, single point]
CC(C)(CCl)C(=O)Nc1ccc(Sc2ccc(F)cc2)cc1	–	inconclusive: 29.1 µM [falling, single point]
CCc1ccc(S(=O)(=O)/N=C2\C=C(Nc3ccc(O)cc3)C(=O)c3ccccc32)cc1	–	active: 11.6 µM
CCCCCC(=O)Nc1ccc(C(=O)CN2C(=O)NC3(CCCCCC3)C2=O)cc1	inactive: -5.62%	–
CCc1ccc(NC(=O)N2CC=C(c3c[nH]c4ccccc34)CC2)cc1	–	inconclusive: 32.6 µM [falling, partial curve, poor fit]

Record cards (already shown).
O=C1c2ccccc2C(=O)c2c(NCCCN(CCO)CCO)cccc21 is listed as Potency: inconclusive: 20.6 µM [falling, single point]
COc1ccc(-c2noc(CN3CCCCC3)n2)cc1OC is listed as Potency: inconclusive: 20.6 µM [activator, partial curve, poor fit]
COc1ccc(CC2(CO)CCN(CC3=CC[C@H]4C[C@@H]3C4(C)C)CC2)cc1 is listed as Potency: inconclusive: 25.9 µM [activator, partial curve, poor fit]
